The campaign covered roughly 320,000 compounds. About 2,100 (0.66%) were called active. The inconclusive results got no clear call from the source; some entries with a clear call stand among them for comparison. The call rests on the fitted dose curve; in most records, active means well fitted inhibition curve with a large enough effect in the signal ratio, with a control signal flat (not every such curve was filed as active); inconclusive means small, poorly fitted or top-dose-only effect, or effect the other way, or a change in a side signal; inactive means flat fitted curve, though single readings scatter; the % refers to the signal ratio. Where the call is inconclusive, the potency comes from a doubtful curve fit.
Assay: qHTS Assay for Lipid Storage Modulators in Drosophila S3 Cells
Conditions: BODIPY lipid droplet fluorescence, 18-24 h, cells fed with added oleic acid; lipid storage change, negative = inhibition: at 46.1 µM (top of the series) unless noted
Method in brief: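 Drosophila S3 cells got compounds at several concentrations plus oleic acid (400 uM solution). Laser-scanning cytometry with 488 nm excitation read lipid droplets at 500-530 nm and cells at 575-640 nm. Percent activity was relative to 20 uM Triacsin C.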
On the % scale 0 is the no-effect control and ±100 the full control effect; potency means the concentration at half of the fitted maximal effect.

Row | Structure (SMILES) | lipid storage change, negative = inhibition | Potency
1 | COc1ccc(CCNS(=O)(=O)c2c(C)[nH]c(C)c2C(=O)N2CCCCC2)cc1OC | inactive | –
2 | Cc1ccc2nc(=O)c(NNc3ccccc3)cnc2c1 | inconclusive: 24.8% | –
3 | CCCCNC(=O)C1CCN(S(=O)(=O)N2CCOCC2)CC1 | inconclusive: -32.8% | –
4 | Cc1ccc(C)c(N2CCN(C(=O)C3CCCN(S(=O)(=O)c4cnc[nH]4)C3)CC2)c1 (stereo unspecified) | – | inconclusive: 32.6 µM [falling, single point]
5 | O=C(COC(=O)c1cc(-c2cccs2)nn1-c1ccccc1)Nc1ccc(Cl)c([N+](=O)[O-])c1 | inconclusive: 13.5% | –
6 | COc1ccc(NC(=O)CN(C)S(=O)(=O)c2cccc3cccnc23)cc1 | – | inconclusive: 0.82 µM [activator, full curve, poor fit]
7 | CC(C)Oc1ccc(-c2nc(NCC3CCCO3)c3ccccc3n2)cc1 (stereo unspecified) | inconclusive: 2.98% | –
8 | CCOc1cc(CNCCO)ccc1OCC(=O)NC(C)(C)C | inconclusive: 12.7% | –
9 | COc1cccc(NC(=O)N2CCC(NC(=O)C(Cc3ccccc3OC)NC(C)=O)CC2)c1 (stereo unspecified) | – | inconclusive: 25.9 µM [falling, partial curve, poor fit]
10 | COc1ccc(C(=O)Nc2c(N)nc(SCC(=O)Nc3ccc(NC(C)=O)cc3)[nH]c2=O)cc1 | inconclusive: -34.3% | –
11 | CCCCNS(=O)(=O)c1ccc2nc(-c3cccnc3)cc(C(=O)NCCCOCC)c2c1 | inconclusive: -6.11% | –
12 | COCCN(C(=O)COC(=O)CCc1nc2ccccc2s1)c1c(N)n(Cc2ccccc2)c(=O)[nH]c1=O | inconclusive: -13.8% | –
13 | CCOc1ccc(OCCCC(=O)NCCc2ccc(OC)cc2)cc1 | – | inconclusive: 29.1 µM [falling, single point]
14 | CC1CN(CC(O)COc2ccc(C#N)cc2)CCN1CC(O)COc1ccc(C#N)cc1 (stereo unspecified) | – | inconclusive: 6.51 µM [activator, single point]
15 | Cc1cc(-c2nnc(SCCC(=O)Nc3ccccc3)o2)no1 | – | inconclusive: 10.3 µM [falling, single point]
16 | Cc1sc2ncn(CC(=O)OC(C)C)c(=O)c2c1C | inconclusive: 117% | –
17 | CC(C)N1C(=O)CCC1C(=O)NCc1ccc(F)cc1Cl (stereo unspecified) | inconclusive: 53.1% | –
18 | COc1cccc(CN(C)C(=O)CC23CC4CC(CC(C4)C2)C3)c1OC | inconclusive: 71.1% | –
19 | CCN1/C(=C/C(C)=O)Sc2ccc(OC)cc21 | inconclusive: -33.3% | –
20 | O=C(CCCCC(=O)NCCCc1ccccc1)NCCCc1ccccc1 | – | active: 20.6 µM
21 | COc1cc(O)c(C(CC(=O)N2CCOCC2)c2ccc(N(C)C)cc2)c(OC)c1 (stereo unspecified) | inconclusive: 17.5% | –
22 | COc1ccc(CC(=O)Nc2nc(-c3ccc(F)c(F)c3)cs2)cc1 | inactive | –
23 | O=C(O)CCc1ncc(C(F)(F)F)cc1Cl | inconclusive: -173% | –
24 | Cc1csc(NC(=O)C(C)Oc2ccc(Br)cc2)n1 (stereo unspecified) | inconclusive: 42.5% | –
25 | COc1ccc(N2CCN(C(C)=C3C(=O)c4ccccc4C3=O)CC2)cc1 | – | inconclusive: 29.1 µM [falling, single point]
26 | COc1ccccc1NC(=O)Nc1ccc2c(c1)OCCO2 | – | inconclusive: 32.6 µM [activator, single point]

Some of the entries so far, with each value named:
Cc1ccc(C)c(N2CCN(C(=O)C3CCCN(S(=O)(=O)c4cnc[nH]4)C3)CC2)c1 (stereo unspecified)
  Potency: inconclusive: 32.6 µM [falling, single point]
O=C(COC(=O)c1cc(-c2cccs2)nn1-c1ccccc1)Nc1ccc(Cl)c([N+](=O)[O-])c1
  lipid storage change, negative = inhibition: inconclusive: 13.5%

Remaining list, next part:

Row | Structure (SMILES) | lipid storage change, negative = inhibition | Potency
27 | CCN(Cc1ccccc1)C(=O)COC(=O)c1cnc(C)cn1 | inactive | –
28 | COc1cc(NC(=S)NCc2ccco2)cc(OC)c1OC | inactive | –
29 | CN(C)S(=O)(=O)c1cccc(C(=O)Nc2cc(Cl)cc(Cl)c2)c1 | – | inconclusive: 6.51 µM [falling, single point]
30 | Cn1cnnc1SCC(=O)Nc1cccc(C(=O)O)c1 | – | inconclusive: 32.6 µM [cytotoxic, partial curve]
31 | O=C(Nc1cnn(C23CC4CC(CC(C4)C2)C3)c1)c1cc(-c2ccccc2)on1 | inconclusive: -3.46% | –
32 | O=C(NCc1cc([N+](=O)[O-])ccc1O)c1cccc(NS(=O)(=O)c2ccccc2)c1 | inconclusive: 15.8% | –
33 | CCOC(=O)CCCCC(=O)c1[nH]c(=O)[nH]c1Cn1cnc2ccccc21 | inconclusive: 36.9% | –
34 | CC(C)(C)c1csc(NC(=O)c2c(F)c(F)c(F)c(F)c2F)n1 | inconclusive: 28.6% | –
35 | O=C(CCn1c(=O)c2ccccc2n(Cc2ccccc2)c1=O)NC1CCN(Cc2ccccc2)CC1 | – | inconclusive: 0.651 µM [falling, full curve, poor fit]
36 | Cc1ccc(NC(=O)CNc2ccccc2N2CCCC2=O)cc1S(=O)(=O)N1CCCCC1 | inconclusive: -72.6% | –
37 | O=C(CNC(=O)C1(c2ccccc2)CC1)Nc1ccc(F)c(F)c1 | inconclusive: 10.5% | –
38 | COc1ccc2nc3cc(Cl)ccc3c(Nc3cc(CN4CCCC4)c(O)c(CN4CCCC4)c3)c2n1 | inconclusive: 17.6% | –
39 | COc1ccc(CCNC(=O)CN2CCOc3ccccc32)cc1OC | inconclusive: -0.0852% | –
40 | Cc1c(Cl)c([N+](=O)[O-])nn1CC(=O)NC(C)c1ccccc1 (stereo unspecified) | inconclusive: 40.2% | –
41 | Nc1ccccc1-c1n[nH]c(=S)s1 | inconclusive: -2.91% | –
42 | CC(=O)Nc1cccc(/C(C)=N/NC(N)=S)c1 | inconclusive: 40.7% | –
43 | Cc1cccc(N2CCN(C(=O)c3ccc(CNc4c(N5CCC(C)CC5)c(=O)c4=O)cc3)CC2C)c1 (stereo unspecified) | – | inconclusive: 5.17 µM [falling, single point]
44 | Cc1ccc(CC23CN4CCN(CC(C4)C2O)C3)c(C)c1 (stereo unspecified) | inconclusive: 19.6% | –
45 | Cc1ccc2nc(SCC(=O)N(C)C3CCS(=O)(=O)C3)[nH]c2c1 (stereo unspecified) | – | active: 1.16 µM
46 | COc1ccc(S(=O)(=O)N2CCN(CC3CC=CCC3)CC2)cc1 (stereo unspecified) | – | inconclusive: 6.51 µM [activator, single point]
47 | COc1ccc(NC(=O)c2cc(C(=O)Nc3ccc(OC)cc3OC)cc([N+](=O)[O-])c2)c(OC)c1 | inconclusive: -103% | –
48 | Cc1ccc(N(C(=O)Cn2nnc(-c3ccc(C)o3)n2)C(C(=O)NC2CCCC2)c2ccncc2)cc1 (stereo unspecified) | inconclusive: -165% | –
49 | CCOC(=O)C1CCN(c2c(NCCCN3CCCCC3)c(=O)c2=O)CC1 | inconclusive: -14.3% | –
50 | COc1ccccc1C(=O)/C=C/c1ccc(N2CCCCC2)c([N+](=O)[O-])c1 | – | inconclusive: 18.4 µM [cytotoxic, partial curve]
51 | CCOC(=O)C1(CCC(C)C)CC(CSc2nc3ccccc3[nH]2)OC1=O (stereo unspecified) | – | inconclusive: 16.4 µM [activator, partial curve]
52 | CCOc1nc(-c2ccc(C)cc2)ccc1-c1noc(-c2cccnc2)n1 | – | inconclusive: 25.9 µM [activator, partial curve, poor fit]

Another view of some results above.
Row,Structure (SMILES),"lipid storage change, negative = inhibition",Potency
48,Cc1ccc(N(C(=O)Cn2nnc(-c3ccc(C)o3)n2)C(C(=O)NC2CCCC2)c2ccncc2)cc1 (stereo unspecified),inconclusive: -165%,–
49,CCOC(=O)C1CCN(c2c(NCCCN3CCCCC3)c(=O)c2=O)CC1,inconclusive: -14.3%,–

Later entries

Row | Structure (SMILES) | lipid storage change, negative = inhibition | Potency
53 | Cc1ccc(C(=O)Nc2cccc(C(F)(F)F)c2)cc1NC(=O)c1cnnc2ccccc12 | inconclusive: -5.64% | –
54 | O=C(COc1coc(CN2CCN(c3ccccc3)CC2)cc1=O)Nc1ccccc1 | inconclusive: 6.36% | –
55 | CCc1ccc(-c2cc(-c3n[nH]c(=S)n3CC)c3ccccc3n2)cc1 | – | inconclusive: 18.4 µM [activator, single point]
56 | Cc1ccc(NS(=O)(=O)c2cc(Br)cnc2N)c(Cl)c1 | inconclusive: -79.6% | –
57 | Cc1cc(C)c2c(=O)[nH]c(SCc3ccccc3)nc2n1 | inconclusive: 42.2% | –
58 | Cc1cccn2cc(CCNS(=O)(=O)c3ccc([N+](=O)[O-])cc3)nc12 | inconclusive: 2.08% | –
59 | Cc1cc(C(=O)N2CCN(C(=O)c3ccco3)CC2)ccc1[N+](=O)[O-] | inconclusive: -35.9% [at 0.369 µM] | –
60 | CCc1noc(C)c1C(=O)N1CCCC(N2CCN(c3ccccc3F)CC2)C1 (stereo unspecified) | – | inconclusive: 29.1 µM [activator, single point]
61 | Cc1ccc2oc(C(=O)N(Cc3ccccc3)C3CCS(=O)(=O)C3)c(C)c2c1 (stereo unspecified) | – | inconclusive: 29.1 µM [falling, single point]
62 | CCOC(=O)C1CCN(C(=O)c2cccnc2Cl)CC1 | inconclusive: -23.5% | –
63 | COc1ccc(CCNC(=O)/C=C/c2ccco2)cc1 | inconclusive: 2.27% | –
64 | CCN(CC)CCCN1C(=O)CSC1c1ccc([N+](=O)[O-])cc1 (stereo unspecified) | inconclusive: 40.2% | –
65 | CC(C)(C)C(=O)Nc1nnc(SCc2cccc(F)c2)s1 | inconclusive: 1.73% | –
66 | CCCCOC(=O)C1=C(C)Nc2ncnn2C1c1cccc(OC)c1OC (stereo unspecified) | – | inconclusive: 6.51 µM [rising, single point]
67 | O=C(COc1ncnc2ccccc12)N1CCN(C(=O)c2ccco2)CC1 | inconclusive: 41.3% | –
68 | O=C(C[N+]1(CC#Cc2ccccc2)CCCCC1)c1ccc(Cl)cc1 | inconclusive: 3.16% | –
69 | O=C(C1=C(O)C(=O)N(Cc2cccnc2)C1c1ccccn1)c1cccs1 (stereo unspecified) | inconclusive: -6.4% | –
70 | COC(=O)Cn1c(Cc2ccccc2)nc2ccccc21 | inconclusive: 79% | –
71 | Cc1cc(N2CCN(c3ccccc3)CC2)n2ncnc2n1 | inconclusive: 6.47% | –
72 | CSc1ncc(Cl)c(C(=O)NCc2cccnc2)n1 | inconclusive: 24.4% | –
73 | N#Cc1cc2c(nc1SCC(=O)N1CCCCC1)CCCCC2 | inconclusive: 13.6% | –
74 | COc1ccccc1C1CCN(C(=O)c2ccc(C(C)(C)C)cc2)CC1 | – | inconclusive: 29.1 µM [cytotoxic, single point]
75 | COCCn1nnnc1C(CC(C)C)N1CCN(C(=O)c2ccco2)CC1 (stereo unspecified) | inconclusive: 6.37% | –
76 | O=C1[C@H]2[C@@H](C(=O)N1c1cccc3ccccc13)C1(C(=O)c3ccccc3C1=O)N1CCC[C@@H]21 | – | inconclusive: 0.411 µM [activator, full curve, poor fit]

— PubChem BioAssay AID2685 (National Center for Advancing Translational Sciences (NCATS), 2010)
